This is an account of results in PubChem BioAssay AID2685 (National Center for Advancing Translational Sciences (NCATS), 2010).

This assay can be described thus: qHTS Assay for Lipid Storage Modulators in Drosophila S3 Cells.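 As to cell number change: cells counted by Cell Tracker Red CMTPX staining in the red channel.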 The conditions noted are these: BODIPY lipid droplet fluorescence, 18-24 h; for cell number change: measured here: cell count max response, cells fed with added oleic acid. In a few lines:
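Laser-scanning cytometry quantifies lipid droplet accumulation (500–530 nm total intensity; droplet/cell object ratio) in oleic acid-fed (400 uM added) Drosophila S3 cells treated with a concentration series. 20 uM Triacsin C defined 100% inhibition.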
In general terms: In qHTS, concentration-response curves come from the screen itself.

[1] abbreviates: measured here: lipid fluorescence (Fed channel) AC50, cells fed with added oleic acid.
Where [2] appears, read: measured here: cell number channel AC50, cells fed with added oleic acid.

This is one part of the list. These are further read-outs of the screen, such as a control signal, another cell line or another target. No call is given for them. Most of these compounds were active or inconclusive in the main read-out, so they are no random draw. The note in brackets gives the kind of curve behind each potency; many fits are weak.

What is called AC50 is the concentration at which the activity in the assay is half-maximal. The low end stands for activity at low concentration, the high end for activity only at high concentration. In the case of `CCOC(=O)C1=NNC(C(=O)c2ccc(Cl)cc2)C1c1ccc(OC)cc1` (stereo not drawn), the cell number change is -6.83%. For the same molecule, the AC50 under setting [1] is 3.66 µM [rising, single point].
`N#Cc1c(-c2ccco2)cc(-c2ccc(F)cc2)nc1N`: the cell number change is -2.58%. The AC50 under setting [1] is 6.51 µM [rising, single point].
In the case of `COCCCn1c(SCC(=O)Nc2oc(C)c3c(C)n[nH]c(=O)c23)nc2sc3c(c2c1=O)CCC3`, the cell number change is 3.48%. Further, the concentration at half-maximal activity (AC50) under setting [2] was 0.326 µM [rising, full curve, poor fit]. For the same molecule, under setting [1], the concentration at half-maximal activity (AC50) is 0.184 µM [rising, full curve].
Turning to `FC(F)(F)c1nnc2ccc(NCc3ccccc3)nn12`, the cell number change is 48.5%. Besides, the concentration at half-maximal activity (AC50) under setting [2] was 29.1 µM [rising, single point].
`CCOC(=O)CSc1nnc(CNC(=O)c2cccs2)n1-c1cc(OC)ccc1OC`: the AC50 under setting [1] is 0.164 µM [falling, partial curve, poor fit].
Same read-out and setting: the value for `Cc1ccc(NC2CC(=O)N(CCc3ccccc3)C2=O)cc1` (stereo not drawn) was 3.66 µM [rising, partial curve].
Turning to `O=C1CN(C(=O)CCCc2c[nH]c3ccccc23)c2ccccc2N1`, the cell number change is -17.9%. Further, the AC50 under setting [1] is 14.6 µM [rising, single point].
In the case of `COc1cccc(C2Nc3ccc4ccccc4c3C3=C2C(=O)CCC3)c1O` (stereo not drawn), the cell number change is -56.4%. Further, the AC50 under setting [2] was 5.8 µM [falling, full curve]. For the same molecule, the AC50 under setting [1] was 6.51 µM [falling, full curve, poor fit].
`COC(=O)c1ccc(C2NCCc3cc(OC)c(OC)cc32)cc1` (stereo not drawn): the cell number change came to 69%. In addition, under setting [2], the concentration at half-maximal activity (AC50) was 16.4 µM [rising, partial curve, poor fit]. Moreover, the AC50 under setting [1] was 29.1 µM [rising, single point].
Consider `CCSCc1nnc(SCC(=O)Nc2nc3ccccc3s2)n1C`, for which the cell number change was -22.3%. The AC50 under setting [1] was 7.31 µM [falling, partial curve].
With `CC1=C(/C=N/Nc2ccc([N+](=O)[O-])cc2[N+](=O)[O-])C(C)(C)CCC1`, the cell number change was -64.3%. Also, under setting [2], the AC50 was 16.4 µM [falling, single point]. Moreover, the AC50 under setting [1] was 25.9 µM [falling, single point].
For `NC(=O)COC(=O)c1ccccc1OCc1ccc(Cl)cc1`, the cell number change worked out at 9.07%. Besides, the AC50 under setting [2] was 0.651 µM [rising, full curve, poor fit].
`CS(=O)(=O)N(CC(=O)N1CCC(C(N)=O)CC1)c1cc(C(F)(F)F)ccc1Cl`: the cell number change came out at 1.75%.
Still for that read-out and setting: the value for `Cn1c(=O)c(C(=O)NCc2ccc(Cl)cc2)c(O)c2ccccc21` was 14.6%.
Regarding `O=C(COC(=O)CCC(=O)c1ccc(F)cc1)NCc1ccco1`, the half-maximal activity concentration (AC50) is 5.8 µM [rising, single point] under setting [2] and 7.31 µM [rising, partial curve] under setting [1].
Take `COC(=O)c1ccc2[nH]c3c(c2c1)CC(C)CC3` (stereo not drawn): the cell number change is -46.1%. Further, the AC50 under setting [2] is 13 µM [falling, partial curve, poor fit].
Regarding `COCc1cc(=O)[nH]c(/N=C(\N)Nc2cccc(Cl)c2)n1`, the cell number change was determined as 52.2%. The half-maximal activity concentration (AC50) under setting [2] was 29.1 µM [rising, single point]. Under setting [1], the AC50 was 29.1 µM [rising, single point].
`COc1ccc(C(=O)CSc2nc3c(c(=O)n(C)c(=O)n3C)n2C)cc1`: the cell number change stood at 7.28%. Further, the concentration at half-maximal activity (AC50) under setting [1] was 0.00461 µM [rising, full curve, poor fit].
Take `O=C(c1ccc(=O)[nH]c1)N(Cc1ccco1)C1(C(=O)NC2CCCC2)CCCCC1`: the cell number change amounted to 87.3%. Moreover, under setting [2], the half-maximal activity concentration (AC50) is 10.3 µM [rising, partial curve].
Turning to `Cc1ccc(Nc2nc(NCCO)nc3c2cnn3C)cc1Cl`, the cell number change is -46.1%. Moreover, under setting [2], the AC50 is 29.1 µM [falling, single point]. Besides, the AC50 under setting [1] is 29.1 µM [falling, single point].
In the case of `CNC(=O)/C(=C\c1ccco1)NC(=O)c1ccco1`, the cell number change was determined as 28.7%. Under setting [1], the AC50 was 29.1 µM [rising, single point].
For the molecule `COc1cc2[nH]ccc(=O)c2cc1OC`, the cell number change amounted to 30.2%. Under setting [2], the half-maximal activity concentration (AC50) is 29.1 µM [rising, single point].
On to `Cc1cc(NC(=O)/C=C/c2cccc(Cl)c2)n(-c2nc3ccccc3[nH]2)n1`, for which the cell number change came out at 12.8%. The AC50 under setting [2] is 0.326 µM [rising, full curve, poor fit].
Consider `CCN1C(=NCc2cc(OC)c(OC)c(OC)c2)N[C@@H](c2cccc(F)c2)C(C(=O)OC)=C1C`, for which the cell number change is -2.34%. In addition, the AC50 under setting [1] is 0.0517 µM [falling, full curve, poor fit].
Regarding `Cc1ccc(S(=O)(=O)CCC(=O)NCc2ccccc2)cc1`, the cell number change was -9.48%. In addition, under setting [1], the AC50 is 29.1 µM [falling, single point].
For the molecule `O=C(OCc1ccc(Cl)c(Cl)c1)c1cnccn1`, the cell number change is -74.4%. Moreover, the concentration at half-maximal activity (AC50) under setting [2] is 29.1 µM [falling, single point].
For the molecule `O=C(Nc1ccc(-c2nc3ccccc3o2)cc1)c1cc(-n2cnnc2)ccc1Cl`, the cell number change is -38.2%. For the same molecule, the half-maximal activity concentration (AC50) under setting [2] was 20.6 µM [falling, single point]. The AC50 under setting [1] was 20.6 µM [falling, single point].
With `COc1ccc(NC(=S)NC2CCN(Cc3ccccc3)CC2)cc1OC`, the cell number change amounted to 15.9%. Further, the half-maximal activity concentration (AC50) under setting [1] was 1.3 µM [falling, partial curve].
As to `CCN(Cc1cn2cccnc2n1)C1CCCCC1`, the cell number change was -38.6%. Further, the AC50 under setting [2] is 32.6 µM [falling, single point]. Under setting [1], the AC50 is 32.6 µM [falling, single point].
Regarding `CN(C)S(=O)(=O)c1cccc(COC(=O)c2cc([N+](=O)[O-])ccc2N2CCOCC2)c1`, the cell number change stood at 41.8%. Besides, the concentration at half-maximal activity (AC50) under setting [2] was 6.51 µM [rising, partial curve].
For the molecule `COc1cc(/C=N/Nc2nc3ccccc3[nH]2)cc(OC)c1O`, the cell number change was -68.2%. Also, the concentration at half-maximal activity (AC50) under setting [2] is 29.1 µM [falling, single point]. Besides, the AC50 under setting [1] is 29.1 µM [falling, single point].
In the case of `O=C(NCCS(=O)(=O)N1CCN(Cc2ccccc2)CC1)c1ccc(F)cc1`, the cell number change was 1.64%. In addition, the concentration at half-maximal activity (AC50) under setting [1] is 0.13 µM [falling, full curve, poor fit].
On to `O=C(NC(=S)NCCc1ccccc1)C1CCCCC1`, for which the cell number change was 12.2%. Further, under setting [1], the AC50 is 29.1 µM [falling, partial curve].
Take `CN1CCSc2ccc(C(=O)Nc3cc(F)ccc3F)cc21`: the cell number change was 17.8%.
Regarding `O=C(NCCN1CCOCC1)c1cc2n(n1)C(C(F)(F)F)CC(c1ccc(F)cc1)N2` (stereo not drawn), the cell number change amounted to 1.79%. For the same molecule, under setting [1], the AC50 is 16.4 µM [rising, single point].
Regarding `COc1ccc2[nH]c(=O)c(CN(C(=O)NC3CCCCC3)C3CCCCC3)cc2c1`, the cell number change was determined as 39.5%. Moreover, under setting [2], the AC50 is 13 µM [rising, partial curve].
For `CSCCC(NC(=O)c1ccccc1Cl)C(=O)Nc1ccncc1` (stereo not drawn), the cell number change was -50%. Also, the AC50 under setting [2] is 20.6 µM [falling, single point]. Under setting [1], the half-maximal activity concentration (AC50) is 0.58 µM [rising, single point].
On to `O=c1c2ccc([N+](=O)[O-])cc2ncn1CCOc1cccc(Br)c1`, for which the cell number change came out at 45.6%. The AC50 under setting [2] is 29.1 µM [rising, single point].
With `O=C(CN1CCCCC1)Nc1cccc(Br)c1`, the concentration at half-maximal activity (AC50) under setting [1] was 0.82 µM [falling, full curve, poor fit].
With `CCc1n[nH]c(=S)n1/N=C/c1cccc2ccccc12`, the cell number change was -9.34%.
Take `CCC(=O)NC(NC(=S)Nc1ccccc1Br)C(Cl)(Cl)Cl` (stereo not drawn): the cell number change was 10.8%. Further, the half-maximal activity concentration (AC50) under setting [1] is 0.651 µM [falling, full curve, poor fit].
With `C=CCn1c(-c2csc(-c3ccc(OC)c(OC)c3)n2)n[nH]c1=S`, the cell number change is -34.3%. Further, the concentration at half-maximal activity (AC50) under setting [1] was 2.59 µM [falling, full curve].
Turning to `CCCC(C(=O)NC1CCCC1)N(C(=O)Cn1nnc(-c2ccc(C)o2)n1)c1cccc(O)c1` (stereo not drawn), the cell number change stood at 13.3%. The AC50 under setting [1] was 20.6 µM [rising, single point].
As for `CCN(CC)C(=O)CC(c1ccccc1)c1ccco1` (stereo not drawn), the cell number change is -1.81%.
As to `NC(=O)CSc1nnc(-c2ccoc2)o1`, the cell number change turned out to be 5.99%. The concentration at half-maximal activity (AC50) under setting [1] was 29.1 µM [falling, single point].
Take `CCCc1nnc(NC(=O)CCC(=O)NCCc2ccc(Cl)cc2)s1`: the cell number change is 8.26%. Under setting [1], the concentration at half-maximal activity (AC50) is 7.31 µM [rising, partial curve].
On to `CSc1ccccc1OCc1cc(C(=O)N2CCN3CCCC3C2)no1` (stereo not drawn), for which the cell number change is -17.9%.
Take `Cc1cc2oc(=O)cc(CN(C)Cc3cccc(F)c3)c2cc1C`: the cell number change worked out at 19.4%.
For `O=C(CSc1ccccc1)NCC(c1ccco1)N1CCCCC1` (stereo not drawn), the cell number change is -16.3%. The AC50 under setting [1] is 18.4 µM [rising, single point].
Regarding `CCOC(=O)c1c(NC(=O)c2ccccc2C)sc2c1CC(C)(C)OC2`, the concentration at half-maximal activity (AC50) under setting [1] is 29.1 µM [rising, single point].
With `Cc1ccc(C)c(NC(=O)NCCN2CCCCC2)c1`, the cell number change was -19.8%. Besides, the AC50 under setting [1] was 0.411 µM [falling, partial curve, poor fit].
Turning to `CCCCN(C(=O)c1cc(-c2ccc(F)cc2)nc2ccccc12)c1c(N)n(CCCC)c(=O)[nH]c1=O`, the cell number change was -48.9%. In addition, under setting [2], the AC50 was 9.2 µM [falling, partial curve]. Further, the AC50 under setting [1] was 2.31 µM [falling, partial curve, poor fit].
Turning to `CCOC(=O)c1c(C)[nH]c(C)c1C(=O)CSc1nc2ccccc2c(=O)n1-c1ccc(Cl)cc1`, the cell number change was found to be 6.74%. Besides, the half-maximal activity concentration (AC50) under setting [1] was 29.1 µM [rising, single point].
In the case of `Cc1nc(Nc2ccccc2)sc1C(=O)c1ccc(F)cc1`, the cell number change is -53.1%. In addition, the concentration at half-maximal activity (AC50) under setting [2] was 16.4 µM [falling, partial curve]. Besides, the AC50 under setting [1] was 20.6 µM [falling, partial curve].
`COc1cc2[nH]c(=S)n(Cc3ccc(F)cc3)c(=O)c2cc1OC`: the cell number change stood at 30.2%. In addition, under setting [2], the concentration at half-maximal activity (AC50) is 18.4 µM [rising, single point]. The AC50 under setting [1] was 16.4 µM [rising, partial curve].
Turning to `Cn1ncc(N2CCN(S(=O)(=O)c3ccc(Br)cc3)CC2)c(Cl)c1=O`, the cell number change was found to be 2.37%. The AC50 under setting [1] was 1.16 µM [falling, full curve].
Take `CC(=O)N[C@@H](Cc1c[nH]c2ccccc12)C(=O)OCC(=O)NCc1ccc2c(c1)OCO2`: the cell number change is -0.122%. Also, the AC50 under setting [1] was 0.517 µM [rising, full curve, poor fit].
As for `COc1cc(CC(=O)Nc2ccccc2N2CCOCC2)cc(OC)c1OC`, the cell number change is -2.84%. Besides, under setting [1], the AC50 was 0.58 µM [rising, single point].
